Patent US7105520B2, “Phenylalanine derivatives” (Ajinomoto Co., Inc., priority 2000, dated 2006)
Structures were worked out from names or drawings and are uncertain.

By UniProt entry, the sequences of proteins in these tests, tags left out. Residues count along the entry.
UniProt P13612, 34-1032 limits assumed: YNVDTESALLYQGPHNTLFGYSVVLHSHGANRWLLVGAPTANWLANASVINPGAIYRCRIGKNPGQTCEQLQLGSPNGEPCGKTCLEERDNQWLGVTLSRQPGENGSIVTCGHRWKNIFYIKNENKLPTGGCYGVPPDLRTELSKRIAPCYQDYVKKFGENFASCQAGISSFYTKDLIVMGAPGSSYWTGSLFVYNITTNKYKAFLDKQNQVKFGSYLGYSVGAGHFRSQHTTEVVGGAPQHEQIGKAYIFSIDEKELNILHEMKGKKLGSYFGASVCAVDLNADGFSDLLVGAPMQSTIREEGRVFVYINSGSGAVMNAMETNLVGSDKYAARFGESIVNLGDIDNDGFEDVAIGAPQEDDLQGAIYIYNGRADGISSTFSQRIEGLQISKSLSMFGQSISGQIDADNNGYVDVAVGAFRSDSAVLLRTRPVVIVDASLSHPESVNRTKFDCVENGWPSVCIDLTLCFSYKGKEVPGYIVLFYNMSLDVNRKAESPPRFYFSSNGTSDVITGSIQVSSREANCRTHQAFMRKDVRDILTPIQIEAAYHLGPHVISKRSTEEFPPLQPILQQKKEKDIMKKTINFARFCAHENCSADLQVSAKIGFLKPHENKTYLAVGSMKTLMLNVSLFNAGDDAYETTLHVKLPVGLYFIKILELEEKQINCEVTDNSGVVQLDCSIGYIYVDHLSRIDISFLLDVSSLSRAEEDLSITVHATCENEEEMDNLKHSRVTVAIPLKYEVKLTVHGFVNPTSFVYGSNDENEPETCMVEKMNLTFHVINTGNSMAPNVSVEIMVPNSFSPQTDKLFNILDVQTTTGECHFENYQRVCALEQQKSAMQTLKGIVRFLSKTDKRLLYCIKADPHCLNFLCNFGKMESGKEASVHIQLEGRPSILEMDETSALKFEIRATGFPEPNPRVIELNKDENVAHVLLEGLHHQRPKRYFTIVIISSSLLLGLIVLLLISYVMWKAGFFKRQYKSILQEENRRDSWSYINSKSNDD
UniProt P26010, 20-798 limits assumed: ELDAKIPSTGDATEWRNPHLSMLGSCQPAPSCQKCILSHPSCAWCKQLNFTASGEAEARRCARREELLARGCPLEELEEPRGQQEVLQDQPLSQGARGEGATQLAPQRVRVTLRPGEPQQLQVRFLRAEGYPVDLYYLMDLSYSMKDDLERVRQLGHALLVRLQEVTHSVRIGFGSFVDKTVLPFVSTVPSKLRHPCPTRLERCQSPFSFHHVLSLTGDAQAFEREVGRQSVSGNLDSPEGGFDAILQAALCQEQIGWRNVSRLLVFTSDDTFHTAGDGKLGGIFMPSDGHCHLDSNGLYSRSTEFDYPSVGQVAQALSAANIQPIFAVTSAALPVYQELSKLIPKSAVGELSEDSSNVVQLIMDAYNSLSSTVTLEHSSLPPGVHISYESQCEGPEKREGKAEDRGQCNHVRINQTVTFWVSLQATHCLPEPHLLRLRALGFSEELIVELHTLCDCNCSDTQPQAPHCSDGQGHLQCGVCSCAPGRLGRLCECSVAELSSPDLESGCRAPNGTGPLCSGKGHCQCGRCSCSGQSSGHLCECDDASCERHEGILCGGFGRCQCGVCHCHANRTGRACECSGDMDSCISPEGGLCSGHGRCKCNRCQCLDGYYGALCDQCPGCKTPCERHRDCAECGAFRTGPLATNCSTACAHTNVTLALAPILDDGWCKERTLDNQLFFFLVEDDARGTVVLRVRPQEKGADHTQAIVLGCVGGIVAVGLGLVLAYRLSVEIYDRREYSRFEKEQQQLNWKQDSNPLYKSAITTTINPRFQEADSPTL
UniProt P05556, 21-798 limits assumed: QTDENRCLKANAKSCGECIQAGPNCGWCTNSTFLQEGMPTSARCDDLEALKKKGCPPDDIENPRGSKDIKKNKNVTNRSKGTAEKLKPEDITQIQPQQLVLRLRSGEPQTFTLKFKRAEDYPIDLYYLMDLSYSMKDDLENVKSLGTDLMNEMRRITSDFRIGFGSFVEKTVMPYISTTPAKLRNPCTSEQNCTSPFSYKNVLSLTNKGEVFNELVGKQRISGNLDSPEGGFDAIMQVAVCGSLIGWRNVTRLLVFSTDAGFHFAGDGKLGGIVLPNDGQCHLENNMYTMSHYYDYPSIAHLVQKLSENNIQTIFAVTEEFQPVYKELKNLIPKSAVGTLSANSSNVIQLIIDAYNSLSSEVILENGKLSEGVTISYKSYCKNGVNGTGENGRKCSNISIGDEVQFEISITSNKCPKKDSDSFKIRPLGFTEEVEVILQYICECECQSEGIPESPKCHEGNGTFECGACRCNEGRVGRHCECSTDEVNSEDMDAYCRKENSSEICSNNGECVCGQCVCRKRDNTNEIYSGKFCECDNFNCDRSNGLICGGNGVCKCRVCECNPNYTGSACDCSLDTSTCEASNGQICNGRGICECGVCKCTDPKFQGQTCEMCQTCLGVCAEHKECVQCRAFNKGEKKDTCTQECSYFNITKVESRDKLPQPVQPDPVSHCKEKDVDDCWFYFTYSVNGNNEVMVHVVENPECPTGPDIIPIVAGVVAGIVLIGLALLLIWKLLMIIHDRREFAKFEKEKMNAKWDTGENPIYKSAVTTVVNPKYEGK

Assays:
[1] = biological target: integrin α 4β7 (Homo sapiens, UniProt P13612+P26010); test: VCAM antagonistic activity (VCAM-1/α4β7 binding assay), RPMI-8866 cells binding to VCAM-1; conditions: read-out: VCAM-1/α 4 β 7 linking antagonization activity IC50; RPMI-8866 cells (human B cells) binding to recombinant human VCAM-1; binding buffer containing 4 mM of MnCl2; room temperature, 30 minutes
Protocol: (Test Example) VCAM Antagonistic Activity (VCAM-1/α4β7 Binding Assay):
The capacity of a test substance antagonistic to the binding of lymphoma cell strain RPMI-8866 of human B cells, known to express integrin α 4β7, to VCAM-1 was determined.
(§1) 100 μl/well of a solution (500 ng/ml) of recombinant human VCAM-1 (R & D systems) solution diluted with buffer A (0.1 M NaHCO3, pH 9.6) was added to a micro titer plate having 96 wells (Nunc Maxisorp). After the incubation at 4° C. overnight, unbound VCAM-1 was removed by washing once with PBS. After completion of the washing, a buffer (buffer B) obtained by diluting Block Ace® (Dainippon Pharmaceutical Co., Ltd.) with PBS to ¼ concentration was added in an amount of 150 μl/well. After the incubation at room temperature for 1 hour, buffer B was removed and the plate was washed with PBS once.
RPMI-8866 cells were incubated in DMEM containing 10 μg/ml of Calcein-AM (Wako Pure Chemical Industries, Ltd.) at 37° C. for 30 minutes to label with fluorescence. The cells were again suspended in a binding buffer (20 mM HEPES, DMEM containing 0.1% BSA) containing 4 mM of MnCl2.
(§2) 50 μl of a test substance of various concentrations obtained by the dilution with the binding buffer was added to the plate. Immediately thereafter, 50 μl (final volume: 100 μl/well) of the fluorescent RPMI-8866 cells (4×10^6 cells/ml) were added thereto, and they were incubated at room temperature for 30 minutes. After the shaking on a plate shaker (IKA MTS-4) at 800 rpm for 30 seconds, the solution was immediately removed to remove the unbound cells. The fluorescence quantity of the bound cells remaining in the wells was determined with a fluorescent plate reader (Wallac 1420 ARVO multi-label counter) (filter excitation wave length: 485 nm, emission wave length: 535 nm). The fluorescent strength thus obtained is proportional to the number of RPMI-8866 cells bound to VCAM-1 and remaining on the plate. The binding rate of each test material in various concentrations was determined while the fluorescent strength of the test material-free well was determined to be 100%. The concentration IC50 for the 50% binding inhibition was calculated.

[2] = biological target: integrin α 4β1 (Homo sapiens, UniProt P05556+P13612); test: VCAM antagonistic activity (VCAM-1/α4β1 binding assay), Jurkat cells binding to VCAM-1; conditions: read-out: VCAM-1/α 4 β 1 linking antagonization activity IC50; Jurkat cells (human T cells) binding to recombinant human VCAM-1; room temperature, 30 minutes
Protocol: (Test Example) VCAM Antagonistic Activity (VCAM-1/α4β1 Binding Assay):
The capacity of a test substance antagonistic to the binding of cell strain Jurkat (ATCC TIB-152) of human T cells, known to express integrin α 4β1, to VCAM-1 was determined.
as §1
Jurkat cells were washed with Dulbecco modified Eagle medium (SIGMA, hereinafter referred to as “DMEM”) twice and then incubated in DMEM containing 10 μg/ml of Calcein-AM (Wako Pure Chemical Industries, Ltd.) at 37° C. in dark place for 30 minutes to label with fluorescence. The cells were again suspended in a binding buffer (20 mM HEPES, DMEM containing 0.1% BSA).
as §2, with “Jurkat” for “RPMI-8866”

Row | SMILES | IC50 [1] [µM] | IC50 [2] [µM]
1 | O=C(NC(Cc1ccc(OCc2c(Cl)cccc2Cl)cc1)C(=O)O)c1cc(N2CCCCC2CO)ccc1[N+](=O)[O-] (centres unmarked) | 0.3 | 1.9
2 | CCN(CCCCO)c1ccc([N+](=O)[O-])c(C(=O)NC(Cc2ccc(OCc3c(Cl)cccc3Cl)cc2)C(=O)O)c1 (centres unmarked) | 0.11 | 3.2
3 | O=C(NC(Cc1ccc(OCc2c(Cl)cccc2Cl)cc1)C(=O)O)c1cc(N2CCCC(O)C2)ccc1[N+](=O)[O-] (centres unmarked) | 0.24 | 2.1
4 | CC(C)N(c1ccc([N+](=O)[O-])c(C(=O)NC(Cc2ccc(OCc3c(Cl)cccc3Cl)cc2)C(=O)O)c1)C(C)C (centres unmarked) | 0.89 | 9.3
